From patent US8933267B2, “Compounds for use as anti-ulcer agent and/or anti-Helicobacter pylori agent and pharmaceutical compositions thereof” (King Saud University, priority 2013, dated 2015)
Marks after values point to notes of the source that are not given here.

Columns and labels:
Swiss albino mice = conditions: oral, doses up to 1000 mg/kg, within 24 h
[1] = test system: absolute alcohol-induced ulcer in rats; experiment: Antiulcerogenic activity, absolute ethanol-induced ulcer model; format: in vivo, male Wistar rats; conditions: for ulcer index: mean, n=6
Experimental: Evaluation of the anti-ulcerogenic activity was carried out using absolute ethanol-induced ulcer model (Bighettia A. E., Antonio M. A., Kohna L. K., Rehdera V. L. G., Foglioa M. A., Possentia A., Vilelaa L., Carvalho J. E. (2005). Antiulcerogenic activity of a crude hydroalcoholic extract and coumarin isolated from Mikania laevigata Schultz Bip. Phytomedicine, 12, 72-77). Thirty male Wistar rats were divided into 5 groups each of 6 rats. Group 1 received the vehicle and served as control, group 2 received ranitidine (100 mg/kg) and served as standard, groups 3, 4 and 5 received the synthesized compound at doses 25, 50 and 100 mg/kg respectively.
Rats of all groups were fasted for 24 h then all medications were administered orally. One hour after treatment, the animals received an oral dose of absolute ethanol (1 ml/200 g) and then sacrificed one hour later, by ether inhalation, the stomachs were rapidly removed, opened along their greater curvature and gently rinsed under running tap water.
Number of lesions in the glandular part of the stomach were measured under an illuminated magnifying microscope (10×). Long lesions were counted and their lengths were measured. Petechial lesions were counted, and then each five petechial lesions were taken as 1 mm of ulcer.
The lesion scores: The mucosal lesions were quantified by the scoring system (0-5) 0=no damage, 1=Local edema and inflammation without ulcers; 2=One ulcer without inflammation; 3=one to two ulcers with inflammation & lesion diameter <1 cm; 4=More than two ulcers with lesion diameter 1-2 cm; 5=Sever ulceration with lesion diameter >2 cm (Morris et al., 1989).
Ulcer index: To calculate the ulcer index (mm), the sum of the total length of long ulcers and petechial lesions in each group of rats was divided by its number. The curative ratio was determined according to the formula: % Protection of control ulcer=Control UI−Test UI/Control UI×100

CC(C)CC(NCC(=O)Nc1ccc(S(N)(=O)=O)cc1)C(=O)O (centres unmarked) [Compound 5, 4-Methyl-2-[2-oxo-2-(4-sulfamoylphenylamino)ethylamino]pentanoic acid]
behavioral changes and mortality (acute toxicity) (Swiss albino mice): did not produce any behavioral changes and mortality | ulcer index ([1]; oral 25 mg/kg): 9.1** mm | ulcer index ([1]; oral 50 mg/kg): 4.48** mm | effectiveness versus standard ranitidine in reducing ulcer index and ulcer score ([1]; oral 100 mg/kg): significantly more effective than the standard | ulcer index ([1]; oral 100 mg/kg): 3.64*** mm
